Amino acid sequences for entries named in this document (tags omitted).
UniProt P60842: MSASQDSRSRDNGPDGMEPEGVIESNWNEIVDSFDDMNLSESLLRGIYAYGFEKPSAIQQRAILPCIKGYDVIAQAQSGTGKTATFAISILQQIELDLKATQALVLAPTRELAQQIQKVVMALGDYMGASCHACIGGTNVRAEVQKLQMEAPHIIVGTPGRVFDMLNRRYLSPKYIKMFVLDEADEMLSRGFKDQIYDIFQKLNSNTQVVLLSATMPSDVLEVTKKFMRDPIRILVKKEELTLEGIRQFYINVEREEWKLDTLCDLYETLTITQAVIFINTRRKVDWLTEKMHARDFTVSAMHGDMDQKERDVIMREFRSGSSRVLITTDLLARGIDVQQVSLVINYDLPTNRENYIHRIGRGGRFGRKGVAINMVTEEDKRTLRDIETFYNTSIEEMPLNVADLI
UniProt P62318: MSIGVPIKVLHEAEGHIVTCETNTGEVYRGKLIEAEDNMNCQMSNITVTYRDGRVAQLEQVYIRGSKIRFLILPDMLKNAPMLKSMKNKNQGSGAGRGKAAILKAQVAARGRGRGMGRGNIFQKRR
UniProt Q99459: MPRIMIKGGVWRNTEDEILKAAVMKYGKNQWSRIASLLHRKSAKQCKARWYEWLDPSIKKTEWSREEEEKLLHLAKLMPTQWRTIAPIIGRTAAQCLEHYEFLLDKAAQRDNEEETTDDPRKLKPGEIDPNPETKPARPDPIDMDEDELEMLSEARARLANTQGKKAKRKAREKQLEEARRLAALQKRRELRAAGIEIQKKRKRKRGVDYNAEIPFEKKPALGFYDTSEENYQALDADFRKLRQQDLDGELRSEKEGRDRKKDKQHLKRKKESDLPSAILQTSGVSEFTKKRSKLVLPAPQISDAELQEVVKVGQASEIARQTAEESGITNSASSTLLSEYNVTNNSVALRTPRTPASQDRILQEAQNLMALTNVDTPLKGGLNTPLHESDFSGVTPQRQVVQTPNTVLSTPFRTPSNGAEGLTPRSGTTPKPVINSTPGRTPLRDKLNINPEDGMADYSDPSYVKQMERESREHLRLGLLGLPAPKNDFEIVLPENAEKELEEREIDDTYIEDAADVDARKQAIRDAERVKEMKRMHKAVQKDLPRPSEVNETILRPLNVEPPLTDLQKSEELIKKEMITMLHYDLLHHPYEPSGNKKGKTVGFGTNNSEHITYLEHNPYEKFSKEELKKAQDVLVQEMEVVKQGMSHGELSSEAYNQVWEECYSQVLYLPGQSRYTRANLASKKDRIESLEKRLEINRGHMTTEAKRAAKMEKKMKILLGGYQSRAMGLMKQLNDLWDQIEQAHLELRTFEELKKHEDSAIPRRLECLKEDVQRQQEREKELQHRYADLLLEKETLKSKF
UniProt O95071: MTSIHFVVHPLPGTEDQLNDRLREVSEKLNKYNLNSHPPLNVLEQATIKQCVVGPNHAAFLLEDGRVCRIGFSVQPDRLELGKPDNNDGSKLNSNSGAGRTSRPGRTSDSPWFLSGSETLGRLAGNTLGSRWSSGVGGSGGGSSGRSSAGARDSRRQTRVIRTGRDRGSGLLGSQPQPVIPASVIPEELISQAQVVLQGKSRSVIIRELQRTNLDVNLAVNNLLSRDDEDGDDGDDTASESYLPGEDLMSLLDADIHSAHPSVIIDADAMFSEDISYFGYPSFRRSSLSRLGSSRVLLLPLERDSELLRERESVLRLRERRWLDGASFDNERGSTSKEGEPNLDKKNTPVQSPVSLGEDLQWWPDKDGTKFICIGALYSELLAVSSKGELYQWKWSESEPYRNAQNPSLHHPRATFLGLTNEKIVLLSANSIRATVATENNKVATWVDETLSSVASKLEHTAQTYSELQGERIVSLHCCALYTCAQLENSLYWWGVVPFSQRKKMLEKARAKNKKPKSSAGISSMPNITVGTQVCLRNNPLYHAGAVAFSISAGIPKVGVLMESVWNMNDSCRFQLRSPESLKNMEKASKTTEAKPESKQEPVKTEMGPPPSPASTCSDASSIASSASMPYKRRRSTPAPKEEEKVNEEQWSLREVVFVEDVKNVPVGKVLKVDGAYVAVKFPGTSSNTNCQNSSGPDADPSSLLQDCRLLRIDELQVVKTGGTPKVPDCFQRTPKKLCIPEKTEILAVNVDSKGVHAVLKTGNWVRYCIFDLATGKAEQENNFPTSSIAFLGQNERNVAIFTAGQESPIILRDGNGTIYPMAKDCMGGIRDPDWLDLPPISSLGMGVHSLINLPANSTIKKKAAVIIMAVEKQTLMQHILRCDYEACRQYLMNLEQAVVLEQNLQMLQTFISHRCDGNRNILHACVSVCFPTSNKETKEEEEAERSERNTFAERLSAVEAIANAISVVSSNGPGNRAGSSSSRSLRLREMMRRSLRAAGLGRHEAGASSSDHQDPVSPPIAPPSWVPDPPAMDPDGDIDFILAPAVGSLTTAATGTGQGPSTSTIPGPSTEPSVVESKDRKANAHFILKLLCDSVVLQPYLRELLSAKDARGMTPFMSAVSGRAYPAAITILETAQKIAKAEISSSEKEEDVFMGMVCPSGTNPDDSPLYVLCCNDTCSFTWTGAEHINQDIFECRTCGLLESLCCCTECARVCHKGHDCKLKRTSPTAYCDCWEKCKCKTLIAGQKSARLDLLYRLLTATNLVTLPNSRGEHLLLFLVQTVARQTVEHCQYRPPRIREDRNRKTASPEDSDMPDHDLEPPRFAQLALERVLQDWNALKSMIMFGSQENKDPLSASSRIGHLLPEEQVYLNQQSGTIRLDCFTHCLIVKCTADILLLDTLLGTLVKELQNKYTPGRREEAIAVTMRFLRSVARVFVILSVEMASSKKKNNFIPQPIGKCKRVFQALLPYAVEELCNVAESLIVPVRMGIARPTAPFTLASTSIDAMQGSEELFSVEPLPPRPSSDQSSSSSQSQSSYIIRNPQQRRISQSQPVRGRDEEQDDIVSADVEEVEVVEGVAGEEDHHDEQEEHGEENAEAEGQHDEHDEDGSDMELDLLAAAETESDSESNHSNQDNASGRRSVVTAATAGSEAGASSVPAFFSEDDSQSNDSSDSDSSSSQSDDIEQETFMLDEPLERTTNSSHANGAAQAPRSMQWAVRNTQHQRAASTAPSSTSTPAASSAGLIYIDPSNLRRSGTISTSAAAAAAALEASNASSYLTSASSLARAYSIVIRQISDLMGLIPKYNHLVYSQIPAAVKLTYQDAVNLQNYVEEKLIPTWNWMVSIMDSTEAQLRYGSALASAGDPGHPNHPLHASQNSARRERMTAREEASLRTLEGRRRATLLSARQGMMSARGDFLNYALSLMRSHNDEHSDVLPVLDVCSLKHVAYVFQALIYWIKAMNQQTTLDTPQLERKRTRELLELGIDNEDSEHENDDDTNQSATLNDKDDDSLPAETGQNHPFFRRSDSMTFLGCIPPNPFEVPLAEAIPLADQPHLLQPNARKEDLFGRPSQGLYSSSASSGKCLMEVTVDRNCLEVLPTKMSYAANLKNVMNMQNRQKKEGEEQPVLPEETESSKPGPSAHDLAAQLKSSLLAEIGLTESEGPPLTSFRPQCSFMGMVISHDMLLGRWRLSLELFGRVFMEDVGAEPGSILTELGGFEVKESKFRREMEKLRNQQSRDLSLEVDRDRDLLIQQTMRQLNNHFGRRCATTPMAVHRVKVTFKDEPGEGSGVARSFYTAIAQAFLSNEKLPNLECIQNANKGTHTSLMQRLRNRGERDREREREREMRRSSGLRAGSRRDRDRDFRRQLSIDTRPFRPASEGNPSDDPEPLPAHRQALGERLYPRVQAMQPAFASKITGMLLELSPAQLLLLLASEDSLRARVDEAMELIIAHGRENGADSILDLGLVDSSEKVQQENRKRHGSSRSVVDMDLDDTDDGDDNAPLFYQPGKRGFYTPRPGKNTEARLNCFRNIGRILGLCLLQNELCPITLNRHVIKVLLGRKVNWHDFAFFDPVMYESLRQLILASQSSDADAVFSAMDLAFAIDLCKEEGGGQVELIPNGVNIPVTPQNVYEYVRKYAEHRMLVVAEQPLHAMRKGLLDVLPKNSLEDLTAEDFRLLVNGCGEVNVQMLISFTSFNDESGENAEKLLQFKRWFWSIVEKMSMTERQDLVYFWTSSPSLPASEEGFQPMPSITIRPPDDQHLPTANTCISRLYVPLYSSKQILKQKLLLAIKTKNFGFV
UniProt P55884: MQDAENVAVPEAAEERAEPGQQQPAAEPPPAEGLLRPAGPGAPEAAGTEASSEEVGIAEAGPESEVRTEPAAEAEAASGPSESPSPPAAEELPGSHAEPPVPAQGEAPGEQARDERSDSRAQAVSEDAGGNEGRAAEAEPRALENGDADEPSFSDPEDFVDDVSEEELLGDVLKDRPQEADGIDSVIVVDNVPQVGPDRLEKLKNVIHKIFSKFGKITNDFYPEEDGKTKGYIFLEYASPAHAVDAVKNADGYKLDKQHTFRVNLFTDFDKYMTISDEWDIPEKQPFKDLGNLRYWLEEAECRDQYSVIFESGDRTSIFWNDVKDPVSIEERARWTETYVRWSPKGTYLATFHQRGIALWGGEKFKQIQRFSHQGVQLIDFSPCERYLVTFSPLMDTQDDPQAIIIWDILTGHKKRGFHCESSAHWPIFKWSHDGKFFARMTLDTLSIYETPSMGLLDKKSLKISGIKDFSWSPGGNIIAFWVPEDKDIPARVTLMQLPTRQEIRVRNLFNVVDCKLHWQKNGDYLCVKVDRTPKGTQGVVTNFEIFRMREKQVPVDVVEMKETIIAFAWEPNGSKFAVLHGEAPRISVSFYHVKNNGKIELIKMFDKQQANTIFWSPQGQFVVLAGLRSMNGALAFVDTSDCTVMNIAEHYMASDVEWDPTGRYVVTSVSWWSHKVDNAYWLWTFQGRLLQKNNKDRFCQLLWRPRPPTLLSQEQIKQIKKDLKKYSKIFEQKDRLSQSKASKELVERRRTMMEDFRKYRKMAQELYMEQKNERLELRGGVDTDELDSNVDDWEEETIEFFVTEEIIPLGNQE
UniProt Q9Y262: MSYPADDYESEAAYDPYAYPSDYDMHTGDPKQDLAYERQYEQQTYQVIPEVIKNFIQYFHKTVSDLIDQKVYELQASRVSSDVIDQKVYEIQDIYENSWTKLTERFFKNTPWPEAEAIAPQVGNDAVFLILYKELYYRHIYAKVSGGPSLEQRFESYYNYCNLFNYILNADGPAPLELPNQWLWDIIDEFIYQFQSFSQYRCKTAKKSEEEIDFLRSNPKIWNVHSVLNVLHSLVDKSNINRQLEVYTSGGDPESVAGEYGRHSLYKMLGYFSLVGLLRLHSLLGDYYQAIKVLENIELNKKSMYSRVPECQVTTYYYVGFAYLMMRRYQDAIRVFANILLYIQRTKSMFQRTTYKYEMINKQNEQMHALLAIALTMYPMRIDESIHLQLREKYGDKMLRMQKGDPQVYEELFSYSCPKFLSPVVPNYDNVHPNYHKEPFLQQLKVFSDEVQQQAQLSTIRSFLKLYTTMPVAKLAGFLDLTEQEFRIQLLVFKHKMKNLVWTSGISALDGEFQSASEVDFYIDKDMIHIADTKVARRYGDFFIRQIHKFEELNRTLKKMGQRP
UniProt Q9UBQ5: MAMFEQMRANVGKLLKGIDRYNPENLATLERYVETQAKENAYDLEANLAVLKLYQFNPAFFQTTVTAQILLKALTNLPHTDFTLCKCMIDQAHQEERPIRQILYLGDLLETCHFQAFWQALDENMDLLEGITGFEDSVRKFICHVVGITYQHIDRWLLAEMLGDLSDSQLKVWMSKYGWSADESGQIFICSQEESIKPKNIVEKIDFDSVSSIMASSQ
UniProt Q96SB4: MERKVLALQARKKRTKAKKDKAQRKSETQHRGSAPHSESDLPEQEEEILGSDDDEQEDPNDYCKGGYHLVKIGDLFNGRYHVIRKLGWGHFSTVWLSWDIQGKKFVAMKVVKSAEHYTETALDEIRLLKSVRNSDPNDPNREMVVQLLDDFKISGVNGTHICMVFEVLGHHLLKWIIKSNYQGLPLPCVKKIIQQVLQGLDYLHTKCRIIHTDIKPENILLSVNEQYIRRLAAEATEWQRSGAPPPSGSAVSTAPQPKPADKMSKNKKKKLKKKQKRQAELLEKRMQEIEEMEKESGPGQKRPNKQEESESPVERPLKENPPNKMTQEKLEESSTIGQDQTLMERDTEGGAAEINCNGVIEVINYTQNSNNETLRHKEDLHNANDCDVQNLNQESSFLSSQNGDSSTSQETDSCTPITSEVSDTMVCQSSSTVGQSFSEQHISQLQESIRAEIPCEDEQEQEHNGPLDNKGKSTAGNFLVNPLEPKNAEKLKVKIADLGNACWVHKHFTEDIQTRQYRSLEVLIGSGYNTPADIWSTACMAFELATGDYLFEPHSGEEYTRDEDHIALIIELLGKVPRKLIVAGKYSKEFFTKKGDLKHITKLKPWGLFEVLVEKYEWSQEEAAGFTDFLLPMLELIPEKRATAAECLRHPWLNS
UniProt P62316: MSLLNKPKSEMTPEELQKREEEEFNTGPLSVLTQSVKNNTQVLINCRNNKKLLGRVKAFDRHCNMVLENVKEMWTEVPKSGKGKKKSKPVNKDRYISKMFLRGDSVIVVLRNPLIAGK

In PMC5841321:

T1: E3 ubiquitin-protein ligase Midline-1 (UniProt O15344)
T1 sequence: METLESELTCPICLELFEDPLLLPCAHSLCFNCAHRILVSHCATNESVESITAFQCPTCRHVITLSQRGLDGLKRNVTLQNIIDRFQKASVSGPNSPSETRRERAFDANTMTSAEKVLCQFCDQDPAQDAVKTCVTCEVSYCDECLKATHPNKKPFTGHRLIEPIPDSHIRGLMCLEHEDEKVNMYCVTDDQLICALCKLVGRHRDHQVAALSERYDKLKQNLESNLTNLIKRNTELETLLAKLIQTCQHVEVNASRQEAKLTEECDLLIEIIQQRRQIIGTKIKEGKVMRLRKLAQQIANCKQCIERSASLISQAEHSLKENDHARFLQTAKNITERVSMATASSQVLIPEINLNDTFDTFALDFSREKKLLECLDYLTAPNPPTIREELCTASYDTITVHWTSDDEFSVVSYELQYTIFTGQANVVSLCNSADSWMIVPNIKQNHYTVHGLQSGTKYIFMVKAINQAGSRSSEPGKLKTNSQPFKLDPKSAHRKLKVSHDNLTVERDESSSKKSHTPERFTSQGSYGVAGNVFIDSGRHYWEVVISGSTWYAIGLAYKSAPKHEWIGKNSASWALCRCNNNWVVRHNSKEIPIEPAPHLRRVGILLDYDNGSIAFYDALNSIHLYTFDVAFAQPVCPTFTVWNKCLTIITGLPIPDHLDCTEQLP

B1: Methionine--tRNA ligase, cytoplasmic (protein, UniProt P56192 1-900)
chain: MRLFVSDGVPGCLPVLAAAGRARGRAEVLISTVGPEDCVVPFLTRPKVPVLQLDSGNYLFSTSAICRYFFLLSGWEQDDLTNQWLEWEATELQPALSAALYYLVVQGKKGEDVLGSVRRALTHIDHSLSRQNCPFLAGETESLADIVLWGALYPLLQDPAYLPEELSALHSWFQTLSTQEPCQRAAETVLKQQGVLALRPYLQKQPQPSPAEGRAVTNEPEEEELATLSEEEIAMAVTAWEKGLESLPPLRPQQNPVLPVAGERNVLITSALPYVNNVPHLGNIIGCVLSADVFARYSRLRQWNTLYLCGTDEYGTATETKALEEGLTPQEICDKYHIIHADIYRWFNISFDIFGRTTTPQQTKITQDIFQQLLKRGFVLQDTVEQLRCEHCARFLADRFVEGVCPFCGYEEARGDQCDKCGKLINAVELKKPQCKVCRSCPVVQSSQHLFLDLPKLEKRLEEWLGRTLPGSDWTPNAQFITRSWLRDGLKPRCITRDLKWGTPVPLEGFEDKVFYVWFDATIGYLSITANYTDQWERWWKNPEQVDLYQFMAKDNVPFHSLVFPCSALGAEDNYTLVSHLIATEYLNYEDGKFSKSRGVGVFGDMAQDTGIPADIWRFYLLYIRPEGQDSAFSWTDLLLKNNSELLNNLGNFINRAGMFVSKFFGGYVPEMVLTPDDQRLLAHVTLELQHYHQLLEKVRIRDALRSILTISRHGNQYIQVNEPWKRIKGSEADRQRAGTVTGLAVNIAALLSVMLQPYMPTVSATIQAQLQLPPPACSILLTNFLCTLPAGHQIGTVSPLFQKLENDQIESLRQRFGGGQAKTSPKPAVVETVTTAKPQQIQALMDEVTKQGNIVRELKAQKADKNEVAAEVAKLLDLKKQLAVAEGKPPEAPKGKKKK
B2: Putative RNA-binding protein Luc7-like 2 (protein, UniProt Q9Y383 1-392)
chain: MSAQAQMRAMLDQLMGTSRDGDTTRQRIKFSDDRVCKSHLLNCCPHDVLSGTRMDLGECLKVHDLALRADYEIASKEQDFFFELDAMDHLQSFIADCDRRTEVAKKRLAETQEEISAEVAAKAERVHELNEEIGKLLAKVEQLGAEGNVEESQKVMDEVEKARAKKREAEEVYRNSMPASSFQQQKLRVCEVCSAYLGLHDNDRRLADHFGGKLHLGFIEIREKLEELKRVVAEKQEKRNQERLKRREEREREEREKLRRSRSHSKNPKRSRSREHRRHRSRSMSRERKRRTRSKSREKRHRHRSRSSSRSRSRSHQRSRHSSRDRSRERSKRRSSKERFRDQDLASCDRDRSSRDRSPRDRDRKDKKRSYESANGRSEDRRSSEEREAGEI
B3: Matrin-3 (protein, UniProt P43243 1-847)
chain: MSKSFQQSSLSRDSQGHGRDLSAAGIGLLAAATQSLSMPASLGRMNQGTARLASLMNLGMSSSLNQQGAHSALSSASTSSHNLQSIFNIGSRGPLPLSSQHRGDADQASNILASFGLSARDLDELSRYPEDKITPENLPQILLQLKRRRTEEGPTLSYGRDGRSATREPPYRVPRDDWEEKRHFRRDSFDDRGPSLNPVLDYDHGSRSQESGYYDRMDYEDDRLRDGERCRDDSFFGETSHNYHKFDSEYERMGRGPGPLQERSLFEKKRGAPPSSNIEDFHGLLPKGYPHLCSICDLPVHSNKEWSQHINGASHSRRCQLLLEIYPEWNPDNDTGHTMGDPFMLQQSTNPAPGILGPPPPSFHLGGPAVGPRGNLGAGNGNLQGPRHMQKGRVETSRVVHIMDFQRGKNLRYQLLQLVEPFGVISNHLILNKINEAFIEMATTEDAQAAVDYYTTTPALVFGKPVRVHLSQKYKRIKKPEGKPDQKFDQKQELGRVIHLSNLPHSGYSDSAVLKLAEPYGKIKNYILMRMKSQAFIEMETREDAMAMVDHCLKKALWFQGRCVKVDLSEKYKKLVLRIPNRGIDLLKKDKSRKRSYSPDGKESPSDKKSKTDGSQKTESSTEGKEQEEKSGEDGEKDTKDDQTEQEPNMLLESEDELLVDEEEAAALLESGSSVGDETDLANLGDVASDGKKEPSDKAVKKDGSASAAAKKKLKKVDKIEELDQENEAALENGIKNEENTEPGAESSENADDPNKDTSENADGQSDENKDDYTIPDEYRIGPYQPNVPVGIDYVIPKTGFYCKLCSLFYTNEEVAKNTHCSSLPHYQKLKKFLNKLAEERRQKKET
B4: Luc7-like protein 3 (protein, UniProt O95232 1-432)
chain: MISAAQLLDELMGRDRNLAPDEKRSNVRWDHESVCKYYLCGFCPAELFTNTRSDLGPCEKIHDENLRKQYEKSSRFMKVGYERDFLRYLQSLLAEVERRIRRGHARLALSQNQQSSGAAGPTGKNEEKIQVLTDKIDVLLQQIEELGSEGKVEEAQGMMKLVEQLKEERELLRSTTSTIESFAAQEKQMEVCEVCGAFLIVGDAQSRVDDHLMGKQHMGYAKIKATVEELKEKLRKRTEEPDRDERLKKEKQEREEREKEREREREERERKRRREEEEREKERARDRERRKRSRSRSRHSSRTSDRRCSRSRDHKRSRSRERRRSRSRDRRRSRSHDRSERKHRSRSRDRRRSKSRDRKSYKHRSKSRDREQDRKSKEKEKRGSDDKKSSVKSGSREKQSEDTNTESKESDTKNEVNGTSEDIKSEGDTQSN
B5: ATP-binding cassette sub-family D member 3 (protein, UniProt P28288 1-659)
chain: MAAFSKYLTARNSSLAGAAFLLLCLLHKRRRALGLHGKKSGKPPLQNNEKEGKKERAVVDKVFFSRLIQILKIMVPRTFCKETGYLVLIAVMLVSRTYCDVWMIQNGTLIESGIIGRSRKDFKRYLLNFIAAMPLISLVNNFLKYGLNELKLCFRVRLTKYLYEEYLQAFTYYKMGNLDNRIANPDQLLTQDVEKFCNSVVDLYSNLSKPFLDIVLYIFKLTSAIGAQGPASMMAYLVVSGLFLTRLRRPIGKMTITEQKYEGEYRYVNSRLITNSEEIAFYNGNKREKQTVHSVFRKLVEHLHNFILFRFSMGFIDSIIAKYLATVVGYLVVSRPFLDLSHPRHLKSTHSELLEDYYQSGRMLLRMSQALGRIVLAGREMTRLAGFTARITELMQVLKDLNHGKYERTMVSQQEKGIEGVQVIPLIPGAGEIIIADNIIKFDHVPLATPNGDVLIRDLNFEVRSGANVLICGPNGCGKSSLFRVLGELWPLFGGRLTKPERGKLFYVPQRPYMTLGTLRDQVIYPDGREDQKRKGISDLVLKEYLDNVQLGHILEREGGWDSVQDWMDVLSGGEKQRMAMARLFYHKPQFAILDECTSAVSVDVEGYIYSHCRKVGITLFTVSHRKSLWKHHEYYLHMDGRGNYEFKQITEDTVEFGS

The molecules below were run against T1, E3 ubiquitin-protein ligase Midline-1 (assay: affinity purification with mass spectrometry; MID1-FLAG expressed in HEK293T, lysate in TKM buffer (20 mM Tris pH 7.4, 100 mM KCl, 5 mM MgCl2, 0.5% NP40, 1 mM DTT), anti-FLAG M1 agarose overnight at 4 °C, 6 washes; untransfected cells as control; Q-Exactive, MaxQuant, 1% FDR).
For “Eukaryotic initiation factor 4A-I (from UniProt P60842 1-406)”, the binding was “binds”.
“Small nuclear ribonucleoprotein Sm D3 (from UniProt P62318 1-126)” was tested, and the binding was “binds”.
With “Kinesin-like protein KIF11 (from UniProt P52732 1-1056)” the binding was “binds”.
For “Eukaryotic translation initiation factor 3 subunit I (from UniProt Q13347 1-325)”, the binding was “binds”.
In the case of “Zinc finger CCCH-type antiviral protein 1 (from UniProt Q7Z2W4 1-902)”, the binding is reported as “binds”.
“Cell division cycle 5-like protein (from UniProt Q99459 1-802)” was tested, and the binding was “binds”.
Myosin-10 (from UniProt P35580 1-1976) was tested, and the binding was “binds”.
With “E3 ubiquitin-protein ligase UBR5 (from UniProt O95071 1-2799)” the binding was “binds”.
With “La-related protein 4B (from UniProt Q92615 1-738)” the binding was “binds”.
For “Probable ATP-dependent RNA helicase DDX17 (from UniProt Q92841 1-729)”, the binding was “binds”.
In the case of “Eukaryotic translation initiation factor 3 subunit B (from UniProt P55884 1-814)”, the binding is reported as “binds”.
For “Probable ATP-dependent RNA helicase DDX20 (from UniProt Q9UHI6 1-824)”, the binding was “binds”.
“Splicing factor 3B subunit 1 (from UniProt O75533 1-1304)” was tested, and the binding was “binds”.
With “Heterogeneous nuclear ribonucleoprotein K (from UniProt P61978 1-463)” the binding was “binds”.
For “Eukaryotic translation initiation factor 3 subunit J (from UniProt O75822 1-258)”, the binding was “binds”.
With “26S proteasome non-ATPase regulatory subunit 14 (from UniProt O00487 1-310)” the binding was “binds”.
In the case of “Protein furry homolog-like (from UniProt O94915 1-3013)”, the binding is reported as “binds”.
“Tubulin beta-4A chain (from UniProt P04350 1-444)” was tested, and the binding was “binds”.
In the case of “Spectrin alpha chain, non-erythrocytic 1 (from UniProt Q13813 1-2472)”, the binding is reported as “binds”.
With “Heterogeneous nuclear ribonucleoprotein Q (from UniProt O60506 1-623)” the binding was “binds”.
For “Eukaryotic translation initiation factor 3 subunit L (from UniProt Q9Y262 1-564)”, the binding was “binds”.
For “Eukaryotic translation initiation factor 3 subunit K (from UniProt Q9UBQ5 1-218)”, the binding was “binds”.
With “Eukaryotic translation initiation factor 3 subunit G (from UniProt O75821 1-320)” the binding was “binds”.
With “BTB/POZ domain-containing protein KCTD5 (from UniProt Q9NXV2 1-234)” the binding was “binds”.
“Exosome complex component RRP45 (from UniProt Q06265 1-439)” was tested, and the binding was “binds”.
In the case of “SRSF protein kinase 1 (from UniProt Q96SB4 1-655)”, the binding is reported as “binds”.
With “ATP-dependent RNA helicase DDX3X (from UniProt O00571 1-662)” the binding was “binds”.
For “Small nuclear ribonucleoprotein Sm D2 (from UniProt P62316 1-118)”, the binding was “binds”.
In the case of B1, the binding is reported as “binds”.
For B2, the binding was “binds”.
For B3, the binding was “binds”.
In the case of B4, the binding is reported as “binds”.
In the case of B5, the binding is reported as “binds”.

These are yes or no findings as the source states them, for the method shown. In cells and extracts the contact can be indirect. Here binding means that the protein was enriched with, or labelled near, the bait; the list need not be complete. Tags and fused reporters may be left off the sequences shown.
